# Assay results taken from PubChem BioAssay AID2662 (National Center for Advancing Translational Sciences (NCATS), 2010).
# Sequences of proteins named here, by UniProt entry; tags and fusion partners are left off.
# UniProt Q03164, whole entry, looked up: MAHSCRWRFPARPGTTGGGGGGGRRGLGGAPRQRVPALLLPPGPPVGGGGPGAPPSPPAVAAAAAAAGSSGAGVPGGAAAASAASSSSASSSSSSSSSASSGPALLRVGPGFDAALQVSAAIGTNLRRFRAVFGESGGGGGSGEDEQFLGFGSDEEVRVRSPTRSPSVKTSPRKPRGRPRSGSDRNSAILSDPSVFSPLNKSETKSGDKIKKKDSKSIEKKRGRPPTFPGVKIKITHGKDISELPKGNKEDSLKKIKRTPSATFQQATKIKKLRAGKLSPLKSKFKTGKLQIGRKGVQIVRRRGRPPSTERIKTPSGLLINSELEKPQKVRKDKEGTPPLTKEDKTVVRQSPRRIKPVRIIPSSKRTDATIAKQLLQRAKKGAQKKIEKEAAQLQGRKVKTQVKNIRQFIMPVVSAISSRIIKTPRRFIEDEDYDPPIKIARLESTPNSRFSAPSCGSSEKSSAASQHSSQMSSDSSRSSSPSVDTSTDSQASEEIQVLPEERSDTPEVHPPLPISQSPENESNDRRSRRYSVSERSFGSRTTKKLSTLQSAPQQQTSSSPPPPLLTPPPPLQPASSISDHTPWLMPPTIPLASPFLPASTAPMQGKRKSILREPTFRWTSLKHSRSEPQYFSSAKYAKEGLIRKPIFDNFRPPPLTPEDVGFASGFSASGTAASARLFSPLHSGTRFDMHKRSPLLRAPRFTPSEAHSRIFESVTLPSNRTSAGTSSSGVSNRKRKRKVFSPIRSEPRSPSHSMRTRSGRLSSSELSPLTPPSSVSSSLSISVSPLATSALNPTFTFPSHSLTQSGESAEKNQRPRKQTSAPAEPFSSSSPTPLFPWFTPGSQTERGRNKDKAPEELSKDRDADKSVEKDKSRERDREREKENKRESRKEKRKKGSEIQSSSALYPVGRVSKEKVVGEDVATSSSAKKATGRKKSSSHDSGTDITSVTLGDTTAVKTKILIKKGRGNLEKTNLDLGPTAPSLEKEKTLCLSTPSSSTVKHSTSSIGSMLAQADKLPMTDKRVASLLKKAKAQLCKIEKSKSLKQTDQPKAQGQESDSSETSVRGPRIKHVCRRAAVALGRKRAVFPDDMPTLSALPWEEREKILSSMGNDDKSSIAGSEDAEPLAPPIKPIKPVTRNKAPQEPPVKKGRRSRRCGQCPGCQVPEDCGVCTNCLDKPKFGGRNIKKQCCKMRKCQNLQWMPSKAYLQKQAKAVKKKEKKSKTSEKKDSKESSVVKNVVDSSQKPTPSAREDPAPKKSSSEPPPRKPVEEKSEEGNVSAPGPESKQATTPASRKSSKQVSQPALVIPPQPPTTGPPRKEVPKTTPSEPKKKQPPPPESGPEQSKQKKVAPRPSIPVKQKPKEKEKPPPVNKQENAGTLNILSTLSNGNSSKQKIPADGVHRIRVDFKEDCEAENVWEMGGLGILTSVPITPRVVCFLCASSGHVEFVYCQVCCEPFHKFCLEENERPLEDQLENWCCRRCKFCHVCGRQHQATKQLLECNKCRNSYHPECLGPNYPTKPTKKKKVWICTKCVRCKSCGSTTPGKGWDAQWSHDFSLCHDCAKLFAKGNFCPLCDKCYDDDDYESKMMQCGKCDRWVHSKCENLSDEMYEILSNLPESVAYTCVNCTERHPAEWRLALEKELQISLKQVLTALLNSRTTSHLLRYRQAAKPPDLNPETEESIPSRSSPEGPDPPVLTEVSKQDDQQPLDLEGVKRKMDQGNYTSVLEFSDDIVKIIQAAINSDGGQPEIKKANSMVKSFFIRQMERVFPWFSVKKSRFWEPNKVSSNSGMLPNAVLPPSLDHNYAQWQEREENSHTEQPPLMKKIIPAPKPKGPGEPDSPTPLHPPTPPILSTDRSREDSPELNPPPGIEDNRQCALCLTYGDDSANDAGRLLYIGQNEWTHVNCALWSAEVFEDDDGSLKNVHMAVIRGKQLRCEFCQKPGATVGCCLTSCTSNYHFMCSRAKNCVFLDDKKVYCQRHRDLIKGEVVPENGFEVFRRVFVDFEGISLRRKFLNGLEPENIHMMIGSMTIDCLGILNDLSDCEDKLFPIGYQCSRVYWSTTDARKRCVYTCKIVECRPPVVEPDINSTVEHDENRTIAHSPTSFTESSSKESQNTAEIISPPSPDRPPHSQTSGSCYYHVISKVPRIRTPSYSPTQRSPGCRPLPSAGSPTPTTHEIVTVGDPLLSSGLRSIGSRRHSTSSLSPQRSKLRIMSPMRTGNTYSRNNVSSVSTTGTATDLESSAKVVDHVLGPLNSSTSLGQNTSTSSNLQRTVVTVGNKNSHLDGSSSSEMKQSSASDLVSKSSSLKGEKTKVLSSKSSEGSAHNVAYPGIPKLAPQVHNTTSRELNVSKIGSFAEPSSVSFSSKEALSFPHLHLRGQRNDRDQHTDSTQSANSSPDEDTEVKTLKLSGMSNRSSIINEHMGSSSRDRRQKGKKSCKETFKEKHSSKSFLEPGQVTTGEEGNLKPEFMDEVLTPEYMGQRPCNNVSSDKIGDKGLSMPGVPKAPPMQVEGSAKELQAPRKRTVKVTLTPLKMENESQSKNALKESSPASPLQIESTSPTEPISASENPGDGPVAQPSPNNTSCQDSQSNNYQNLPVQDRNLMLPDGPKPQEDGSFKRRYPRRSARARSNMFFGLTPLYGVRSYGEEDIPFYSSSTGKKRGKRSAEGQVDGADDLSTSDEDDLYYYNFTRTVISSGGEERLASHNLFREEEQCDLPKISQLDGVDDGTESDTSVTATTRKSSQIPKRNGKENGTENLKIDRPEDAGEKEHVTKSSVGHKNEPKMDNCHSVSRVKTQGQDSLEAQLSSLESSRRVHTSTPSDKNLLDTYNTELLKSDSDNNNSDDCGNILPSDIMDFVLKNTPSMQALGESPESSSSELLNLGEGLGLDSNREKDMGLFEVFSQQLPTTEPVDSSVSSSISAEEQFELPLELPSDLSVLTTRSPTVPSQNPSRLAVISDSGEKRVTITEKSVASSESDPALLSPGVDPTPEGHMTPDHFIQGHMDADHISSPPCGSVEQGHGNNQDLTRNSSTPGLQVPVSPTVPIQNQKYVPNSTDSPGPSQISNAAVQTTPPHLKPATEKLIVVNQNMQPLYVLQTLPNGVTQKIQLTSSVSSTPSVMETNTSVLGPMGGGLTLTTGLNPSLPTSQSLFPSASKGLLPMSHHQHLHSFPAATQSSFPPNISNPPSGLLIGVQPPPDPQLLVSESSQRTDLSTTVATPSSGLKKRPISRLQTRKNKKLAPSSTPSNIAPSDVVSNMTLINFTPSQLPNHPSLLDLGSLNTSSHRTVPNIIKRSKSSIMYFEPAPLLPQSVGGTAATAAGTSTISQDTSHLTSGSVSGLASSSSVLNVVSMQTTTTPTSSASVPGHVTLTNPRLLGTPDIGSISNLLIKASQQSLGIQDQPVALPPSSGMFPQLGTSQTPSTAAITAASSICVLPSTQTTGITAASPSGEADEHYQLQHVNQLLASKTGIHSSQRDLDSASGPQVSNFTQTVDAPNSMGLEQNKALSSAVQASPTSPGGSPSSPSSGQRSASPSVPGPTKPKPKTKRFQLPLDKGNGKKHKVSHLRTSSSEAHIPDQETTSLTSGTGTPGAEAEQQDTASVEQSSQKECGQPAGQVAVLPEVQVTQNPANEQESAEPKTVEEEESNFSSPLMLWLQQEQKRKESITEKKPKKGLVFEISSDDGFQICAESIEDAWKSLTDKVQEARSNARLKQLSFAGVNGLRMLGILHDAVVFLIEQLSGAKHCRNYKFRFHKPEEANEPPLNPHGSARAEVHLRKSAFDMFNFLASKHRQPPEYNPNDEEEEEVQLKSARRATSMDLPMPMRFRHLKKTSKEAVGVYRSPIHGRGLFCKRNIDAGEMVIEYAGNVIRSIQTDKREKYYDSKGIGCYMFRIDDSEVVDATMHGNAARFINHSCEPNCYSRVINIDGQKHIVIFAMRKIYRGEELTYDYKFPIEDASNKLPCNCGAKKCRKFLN
# The whole screen tested about 290,000 compounds, of which about 110 (0.038%) were called active. Inconclusive results, whose numbers are uncertain, are shown with a selection of clear calls. The call rests on the fitted dose curve; in most records, active means well fitted inhibition curve with a large enough effect in the polarisation, with a control signal flat (not every such curve was filed as active); inconclusive means small, poorly fitted or top-dose-only effect, or effect the other way, or a change in a side signal; inactive means no such curve, though single readings can be large or run the other way; the % refers to the polarisation. Potencies beside an inconclusive call are fits to weak or partial responses and may not hold up. A note “side channel” means that the fit belongs to a control or component signal, not to the main read-out.
# Target: Histone-lysine N-methyltransferase 2A (Homo sapiens) (UniProt Q03164)
# Assay: qHTS Fluorescence Polarization Assay for Inhibitors of MLL CXXC domain - DNA interaction
# Details: MLL-CXXC / FITC-HOXA9 DNA fluorescence polarization; series mostly up to 115 µM
# In short: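 Purified MLL-CXXC (added from a 7 uM solution) was preincubated 5 min at ambient with pinned compounds in 50 mM Tris-HCl pH 7.5, 50 mM NaCl, 1 mM DTT, 0.05% BSA. Fluorescein-labeled HOX-A9 DNA (50 nM solution) followed, 30 min, then polarization read.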
# Potency means the concentration at half of the fitted maximal effect.
row,SMILES,Potency
1,Nc1ccc(S(=O)(=O)Nc2ccccc2)cc1,"inconclusive: 35.5 µM [fluorescent, side channel, full curve]"
2,Oc1[nH]c2ccc(Br)cc2c1N=Nc1ccc(F)cc1,"inconclusive: 11.2 µM [fluorescent, side channel, partial curve]"
3,O=C(NC1CCCCCC1)C1CCC(=O)N(Cc2ccccc2F)C1 (stereo not given),"inconclusive: 14.1 µM [fluorescent, side channel, single point]"
4,COc1ccc(S(N)(=O)=O)cc1C(=O)NCCCN1CCN(c2cccc(Cl)c2)CC1,"inconclusive: 31.6 µM [fluorescent, side channel, single point]"
5,O=c1c(/C=C(\O)c2ccccc2)nc2ccccc2n1-c1ccccc1,"inconclusive: 44.7 µM [fluorescent, side channel, partial curve]"
6,Cc1ccccc1NC(=O)COC(=O)CN1C(=O)NC(C)(C)C1=O,"inconclusive: 14.1 µM [quencher, side channel, single point]"
7,CCCN(c1ccc(C)cc1)c1nc(=O)c2cccnc2s1,"inconclusive: 89.1 µM [quencher, side channel, single point]"
8,CCOc1cc(/C=C\c2[nH]c(=O)[nH]c(=O)c2[N+](=O)[O-])ccc1OC(C)CC (stereo not given),"inconclusive: 17.8 µM [inhibitor, full curve]"
9,COC(=O)c1ccc(CSc2nnc(-c3ccc4c(c3)OCO4)n2-c2ccccc2)o1,"inconclusive: 25.1 µM [fluorescent, side channel, partial curve, poor fit]"
10,CC(C)Cc1nnc(NC(=O)CSc2nc(O)c(Cc3ccccc3)c(=O)[nH]2)s1,"inconclusive: 28.2 µM [inhibitor, single point]"
11,C[C@H](CCCC(C)(C)O)[C@H]1CC[C@H]2[C@@H]3CC=C4C[C@@H](O)CC[C@]4(C)[C@H]3CC[C@]12C,inactive
12,COc1cc(/C=N/N2CCN(Cc3ccc(C)cc3)CC2)cc(OC)c1O,"inconclusive: 89.1 µM [inhibitor, single point]"
13,Cn1cc(-c2ccccc2C(=O)O)c(=O)c2cc(Cl)ccc21,"inconclusive: 89.1 µM [fluorescent, side channel, single point]"
14,O=c1[nH]nc(-c2ccc(OCc3ccc(Cl)cc3Cl)cc2)o1,"inconclusive: 89.1 µM [fluorescent, side channel, single point]"
15,CCCCOc1ccc(/C=C/C(=O)NC2=Nc3ccccc3NC(C)=C2C(=O)OCC)cc1OC,"inconclusive: 70.8 µM [fluorescent, side channel, single point]"
16,N#C/C(C(N)=O)=C1/SC=C(c2ccccc2)N1c1ccccc1,"inconclusive: 14.1 µM [quencher, side channel, full curve]"
17,N#C/C(=C/c1ccc(N2CCCCC2)o1)C(=O)Nc1ccc(Cl)cc1,"inconclusive: 1 µM [fluorescent, side channel, full curve, poor fit]"
18,CC1=C(CC(=O)O)c2cc(F)ccc2/C1=C/c1ccc(S(C)=O)cc1 (stereo not given),"inconclusive: 31.6 µM [inhibitor, partial curve]"
19,Cc1cc(N/N=C/c2ccc(O)cc2O)nc(-n2nc(C)cc2C)n1,"inconclusive: 3.16 µM [quencher, side channel, full curve]"
20,COc1cc(OC)c(S(=O)(=O)Nc2ccc(C(=O)O)cc2)cc1S(=O)(=O)Nc1ccc(C(=O)O)cc1,inactive

# Structural class: those above with a COOH group.
row,SMILES,Potency
13,Cn1cc(-c2ccccc2C(=O)O)c(=O)c2cc(Cl)ccc21,"inconclusive: 89.1 µM [fluorescent, side channel, single point]"
18,CC1=C(CC(=O)O)c2cc(F)ccc2/C1=C/c1ccc(S(C)=O)cc1 (stereo not given),"inconclusive: 31.6 µM [inhibitor, partial curve]"
20,COc1cc(OC)c(S(=O)(=O)Nc2ccc(C(=O)O)cc2)cc1S(=O)(=O)Nc1ccc(C(=O)O)cc1,inactive

# Later entries

row,SMILES,Potency
1,N#CC1(C#N)C(c2ccccc2)OC23CCCCC2C1(C#N)C(=N)O3 (stereo not given),"inconclusive: 50.1 µM [fluorescent, side channel, single point]"
2,Cc1ccccc1-n1nc(C)c(N=O)c1N,"inconclusive: 31.6 µM [quencher, side channel, partial curve]"
3,CCOc1ccc(S(=O)(=O)N2CCC(C(=O)N3CCN(Cc4ccccc4)CC3)CC2)cc1,"inconclusive: 10 µM [fluorescent, side channel, single point]"
4,CC(C)(C)c1ccc(OCC(=O)Nc2ccc(C(=O)Nc3ccccc3C(=O)O)cc2)cc1,"inconclusive: 39.8 µM [quencher, side channel, single point]"
5,O=C(CCc1nnc(C2CCCCC2)o1)N1CCN(C2CCCCC2)CC1,"inconclusive: 100 µM [inhibitor, partial curve, poor fit]"
6,CCOC(=O)c1ccc2nc(NC(C)=O)sc2c1,inactive
7,O=C1NCN(CCO)CN1,"inconclusive: 89.1 µM [quencher, side channel, single point]"
8,COCCN1C(=O)/C(=C/c2ccc(N3CCCC3)cc2)SC1=S,"inconclusive: 0.0891 µM [fluorescent, side channel, full curve]"
9,CCN(CC)S(=O)(=O)c1ccc(NC(=O)COC(=O)c2ccc(NC(=O)CC#N)cc2)cc1,"inconclusive: 56.2 µM [fluorescent, side channel, single point]"
10,COc1cccc(OCC(=O)O/N=C(\N)c2ccc(OC)c(OC)c2)c1,"inconclusive: 15.8 µM [fluorescent, side channel, single point]"
11,Cc1c(N=C2N=C(NC(=O)Nc3ccc(Cl)cc3)c3ccccc32)c(=O)n(-c2ccccc2)n1C,"inconclusive: 31.6 µM [fluorescent, side channel, single point]"
12,Cc1nn(C)c(C)c1N1C(=O)c2cccc3c(N)ccc(c23)C1=O,"inconclusive: 14.1 µM [fluorescent, single point]"
13,CNc1nc(-c2ccccn2)nnc1-c1ccccc1,inactive
14,On1c(-c2ccccc2)nc2ncccc21,"inconclusive: 15.8 µM [fluorescent, side channel, single point]"
15,O=C(/C=C/c1ccc([N+](=O)[O-])cc1)Nc1cccc(C(=O)Nc2ccccc2C(=O)O)c1,"inconclusive: 5.62 µM [inhibitor, full curve]"
16,Cc1ccccc1C(=O)/C=C1/SCC(=O)N1C,inactive
17,COc1ccc(N(C(=O)c2snc(C(N)=O)c2N)C(C(=O)NC2CCCC2)c2ccc(F)cc2)c(OC)c1 (stereo not given),inactive
18,Cc1cc(C#N)c2ccccc2n1,inactive
19,O=c1oc(/C=C/c2ccc([N+](=O)[O-])s2)nc2ccccc12,inactive
20,COC(=O)CNC(=O)C1Cc2ccccc2CN1S(=O)(=O)c1ccc(F)cc1 (stereo not given),"inconclusive: 89.1 µM [inhibitor, single point]"

row,SMILES,Potency
1,COc1ccc2cc3cc(C(=O)Nc4ccccc4N4CCN(C)CC4)oc3nc2c1,"inconclusive: 22.4 µM [quencher, side channel, partial curve]"
2,O=C(/C=C/c1cccc([N+](=O)[O-])c1)Nn1c(-c2ccccc2F)nc2ccccc2c1=O,inactive
3,CC(C)=CCC/C(C)=C/CC/C(C)=C/CC/C=C(\C)CC/C=C(\C)CCC=C(C)C,"inconclusive: 89.1 µM [fluorescent, side channel, partial curve]"
4,COC(=O)Cc1[nH]nc2c1C(C1C=CCCC1)C(C#N)=C(N)O2 (stereo not given),inactive
5,CCCCOc1ccc(/C=C2/Sc3ccccc3C2=O)cc1,"inconclusive: 20 µM [fluorescent, side channel, partial curve]"
6,CCOc1ccccc1C1c2[nH]c3ccccc3c2C[C@H]2C(=O)N(C3CC3)CC(=O)N12 (stereo not given in full),"inconclusive: 15.8 µM [inhibitor, single point]"
7,NNc1nc2ccccc2nc1C(F)(F)F,inactive
8,COc1cccc(OCc2cc(C(=O)N3CCN(C(C)=O)CC3)no2)c1,"inconclusive: 10 µM [fluorescent, side channel, partial curve]"
9,CNC(=O)/C(C#N)=C/c1c(N2CCN(c3ccc(OC)cc3)CC2)nc2c(C)cccn2c1=O,"inconclusive: 31.6 µM [inhibitor, single point]"
10,COCCn1cc(C(=O)NCc2ccco2)c2c3ccccc3n(C)c2c1=O,inactive
11,Nc1nc(NCc2ccco2)nc(N2CCCCCC2)c1[N+](=O)[O-],"inconclusive: 28.2 µM [fluorescent, side channel, single point]"
12,CCOC(=O)C1=C(C)N=c2s/c(=C\c3ccc(OCC(=O)O)cc3)c(=O)n2C1c1ccccc1 (stereo not given),inactive
13,CC(=O)Nc1ccc2nc3c(=O)n(C)c(=O)n(C)c3nc2c1,"inconclusive: 89.1 µM [inhibitor, single point]"
14,CCC(/C=C1\Sc2ccc(OC)cc2N1CCO)=C\c1sc2ccc(OC)cc2[n+]1CCO,"inconclusive: 35.5 µM [quencher, side channel, partial curve]"
15,O=C(COC(=O)c1cc(NS(=O)(=O)c2cccs2)ccc1O)Nc1cc(Cl)ccc1Cl,"inconclusive: 15.8 µM [fluorescent, side channel, single point]"
16,CN1c2ccccc2N(C)C1(C)c1ccccc1,inactive
17,CCCN1C(=O)/C(=C/c2c(N3CCNC(=O)C3CC(=O)OC)nc3c(C)cccn3c2=O)SC1=S (stereo not given),"inconclusive: 2.82 µM [fluorescent, side channel, full curve]"
18,CCC(=O)Nc1nnc(/C=C/c2ccccc2)s1,"inconclusive: 8.91 µM [inhibitor, single point]"
19,CC(=O)NN1C(=O)/C(=C\c2ccc(Cl)cc2)SC1=S,inactive
20,CCn1ccnc1CN(C)C(=O)c1cc(COc2c(F)cccc2F)on1,"inconclusive: 1.41 µM [inhibitor, partial curve, poor fit]"
